Patent US20070004623A1, “Use of hydroxylated amino acids for treating diabetes” (Innodia Inc., priority 2003, published 2007)
At least one compound was matched to its structure with a doubt left.

System: Diet-Induced Obese C57B6 Mouse
Test: oral glucose tolerance test (OGTT) in diet-induced obese mice
Format: in vivo
Settings: p<0.05

CN(CCOc1ccc(CC2SC(=O)NC2=O)cc1)c1ccccn1 (centres unmarked) [Rosiglitazone]
glucose tolerance in OGTT relative to high fat diet control animals (day 7, Rosiglitazone 5 mg/kg twice daily oral gavage): more glucose tolerant | glucose tolerance in OGTT relative to high fat diet control animals (day 21, Rosiglitazone 1.5 or 5 mg/kg twice daily oral gavage): significantly improved glucose tolerance
